Measurements as given in article PMC6858373 (Scientific Reports, 2019).

Chains of the proteins cited; added tags and fusions are not shown.
UniProt P08659, whole entry N50D/N119G/S548I/K549A/L550V, looked up: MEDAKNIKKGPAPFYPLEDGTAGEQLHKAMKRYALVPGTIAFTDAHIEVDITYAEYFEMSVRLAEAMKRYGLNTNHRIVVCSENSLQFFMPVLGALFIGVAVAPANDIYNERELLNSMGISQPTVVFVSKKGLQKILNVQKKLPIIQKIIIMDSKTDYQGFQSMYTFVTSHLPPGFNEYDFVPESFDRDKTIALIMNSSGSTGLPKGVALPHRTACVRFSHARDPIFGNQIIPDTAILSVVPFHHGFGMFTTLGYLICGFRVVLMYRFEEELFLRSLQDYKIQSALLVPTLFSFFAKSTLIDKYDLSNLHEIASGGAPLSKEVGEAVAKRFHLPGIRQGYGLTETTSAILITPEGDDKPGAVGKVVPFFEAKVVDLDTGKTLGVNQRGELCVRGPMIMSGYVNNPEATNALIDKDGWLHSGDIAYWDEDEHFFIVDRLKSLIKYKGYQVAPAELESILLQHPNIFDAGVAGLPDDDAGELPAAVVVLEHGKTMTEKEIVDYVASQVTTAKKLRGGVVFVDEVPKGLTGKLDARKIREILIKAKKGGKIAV

Target: full-length P. pyralis luciferase (Photinus pyralis, UniProt P08659, K549A/L550V/N119G/N50D/S548I)
Format: cell-based

O=[N+]([O-])c1ccc(-c2nc(-c3ccncc3)c(-c3ccc(F)cc3)[nH]2)cc1 [PD 169316]
Luciferase Assay % Lum (full-length luciferase counter-screen): 97.78% | Luciferase Assay Z-score (full-length luciferase counter-screen): -0.28
